Test results as given in US20260159474A1, “Aminoindane Compounds and Compositions and Methods of Their Therapeutic Use” (Solvonis Therapeutics Ireland Holdings Limited, priority 2021, published 2026).
At least one read-out could not be matched to a standard name with certainty. For at least one compound, name, drawing or mass did not settle the structure.

test: Brain tissue binding by equilibrium dialysis, rat brain homogenate; format: in vitro ADME; conditions: fraction unbound
Description: Methods: Plasma protein binding and blood tissue binding of test items (0.5 μM) was determined using biological samples from male Sprague Dawley (SD) rats and humans. […] Dexamethasone was used as a control compound for lung tissue binding. Various biological samples were spiked with test compounds according to the methods that follow.
Preparation of brain homogenate samples: Test items were dissolved in DMSO (or an appropriate solvent) to give a 10 mM solution. Further dilutions, to obtain […] working solutions (WS), were then prepared using 50% acetonitrile in Milli Q water. These 100×WS were used to spike the brain homogenate to obtain a final concentration of 5 μM. From this initial spiking solution, control samples (n=3) referred to as T=0, were immediately extracted by protein precipitation.
An equilibrium dialysis method was performed to determine protein binding in the various biological samples described herein. Materials were prepared and methods were in accordance with the following procedures.
Membranes were prepared for use in the equilibrium dialysis experiment. by soaking in deionized water for at least 60 minutes. After this period, 20% of pure ethanol was added, and the membranes were left in this solution for at least 20 minutes. The membranes were then rinsed in Milli-Q water prior to use. […]
Samples were then injected onto an HPLC MS/MS or UPLC MS/MS system. In order to control the integrity of the membrane after the dialysis process, the presence of protein was assessed in the buffer compartment. […]
Samples were analyzed in a LC-MS/MS system using an analytical method to monitor the compound to internal standard peak area ratios as representative of the compound concentrations. Alternatively, samples were analyzed by RapidFire. […]

| Structure (SMILES) | Rat brain tissue binding (Fu %) |
| --- | --- |
| COC(=O)c1cc2c(cc1OC)CC(N)C2 (stereo not drawn) [CMP-401] | >50% |
| COC(=O)COc1ccc2c(c1)CC(N)C2 (stereo not drawn) [CMP-402] | Low |
| CNC(C)Cc1ccc2c(c1)OCO2 (stereo not drawn) [MDMA] | 40% |
